No constants are given. Whether binding was seen depends on the method and setting. Binding seen in cells or lysates may run through a third protein. A yes stands for co-enrichment or nearness to the bait. Other partners may have been found. Tags and fused reporters may be left off the sequences shown.
T1: HA-eIF2A (N-terminally HA-tagged eukaryotic initiation factor 2A expressed from YCplac111-YP) (S. cerevisiae) (UniProt P53235)
T1 sequence: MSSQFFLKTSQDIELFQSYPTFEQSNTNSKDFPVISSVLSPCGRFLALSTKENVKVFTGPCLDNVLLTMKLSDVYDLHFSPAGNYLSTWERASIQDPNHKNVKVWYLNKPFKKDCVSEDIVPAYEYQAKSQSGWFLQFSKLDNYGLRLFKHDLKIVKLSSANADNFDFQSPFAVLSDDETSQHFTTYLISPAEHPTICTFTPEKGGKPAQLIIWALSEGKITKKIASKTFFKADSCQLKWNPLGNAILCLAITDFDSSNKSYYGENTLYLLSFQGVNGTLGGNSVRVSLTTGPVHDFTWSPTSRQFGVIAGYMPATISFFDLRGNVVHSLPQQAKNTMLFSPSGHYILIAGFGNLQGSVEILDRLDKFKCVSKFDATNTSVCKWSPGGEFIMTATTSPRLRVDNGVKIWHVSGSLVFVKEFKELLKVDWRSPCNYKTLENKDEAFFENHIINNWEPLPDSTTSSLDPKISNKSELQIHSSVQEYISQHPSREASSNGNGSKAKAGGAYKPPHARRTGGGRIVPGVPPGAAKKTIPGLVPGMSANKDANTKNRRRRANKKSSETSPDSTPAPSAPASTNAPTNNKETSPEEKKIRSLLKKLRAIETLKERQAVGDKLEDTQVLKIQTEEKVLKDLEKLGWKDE

The chains behind the UniProt entries cited, without tags or fusion partners.
UniProt P32324: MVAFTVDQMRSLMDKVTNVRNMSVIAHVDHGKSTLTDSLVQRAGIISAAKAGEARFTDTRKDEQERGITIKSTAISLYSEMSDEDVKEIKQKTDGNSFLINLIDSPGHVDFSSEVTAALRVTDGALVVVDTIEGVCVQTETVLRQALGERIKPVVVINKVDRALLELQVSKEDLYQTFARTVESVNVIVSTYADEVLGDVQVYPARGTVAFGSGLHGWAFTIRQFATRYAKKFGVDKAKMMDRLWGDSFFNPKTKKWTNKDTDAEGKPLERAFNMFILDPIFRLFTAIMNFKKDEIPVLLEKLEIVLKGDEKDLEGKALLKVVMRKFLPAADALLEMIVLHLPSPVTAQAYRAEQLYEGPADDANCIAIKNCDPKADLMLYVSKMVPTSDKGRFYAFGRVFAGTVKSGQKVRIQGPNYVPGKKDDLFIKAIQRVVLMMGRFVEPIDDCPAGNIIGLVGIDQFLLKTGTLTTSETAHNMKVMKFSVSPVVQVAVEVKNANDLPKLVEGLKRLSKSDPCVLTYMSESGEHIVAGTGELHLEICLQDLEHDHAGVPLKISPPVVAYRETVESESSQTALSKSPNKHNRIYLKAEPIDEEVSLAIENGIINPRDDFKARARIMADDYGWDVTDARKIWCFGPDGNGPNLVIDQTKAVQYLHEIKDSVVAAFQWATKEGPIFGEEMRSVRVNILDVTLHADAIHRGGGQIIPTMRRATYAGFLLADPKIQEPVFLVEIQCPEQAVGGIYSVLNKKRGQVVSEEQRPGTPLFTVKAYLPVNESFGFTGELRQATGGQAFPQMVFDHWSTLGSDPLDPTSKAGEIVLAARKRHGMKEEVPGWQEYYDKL
UniProt P0CX44: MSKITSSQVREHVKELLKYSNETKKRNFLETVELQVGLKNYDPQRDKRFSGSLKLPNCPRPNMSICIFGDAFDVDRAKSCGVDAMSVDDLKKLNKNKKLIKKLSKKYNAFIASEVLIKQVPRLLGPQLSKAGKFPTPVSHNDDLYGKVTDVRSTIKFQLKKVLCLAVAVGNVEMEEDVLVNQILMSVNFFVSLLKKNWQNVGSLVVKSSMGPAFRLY
UniProt P0CX46: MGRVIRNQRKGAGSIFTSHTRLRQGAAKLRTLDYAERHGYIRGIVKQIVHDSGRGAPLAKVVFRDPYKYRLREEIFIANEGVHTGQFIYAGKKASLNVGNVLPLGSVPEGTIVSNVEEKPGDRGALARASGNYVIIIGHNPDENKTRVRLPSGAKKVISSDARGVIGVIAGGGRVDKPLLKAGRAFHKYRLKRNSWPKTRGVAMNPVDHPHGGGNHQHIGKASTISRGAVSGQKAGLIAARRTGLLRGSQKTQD
UniProt P14126: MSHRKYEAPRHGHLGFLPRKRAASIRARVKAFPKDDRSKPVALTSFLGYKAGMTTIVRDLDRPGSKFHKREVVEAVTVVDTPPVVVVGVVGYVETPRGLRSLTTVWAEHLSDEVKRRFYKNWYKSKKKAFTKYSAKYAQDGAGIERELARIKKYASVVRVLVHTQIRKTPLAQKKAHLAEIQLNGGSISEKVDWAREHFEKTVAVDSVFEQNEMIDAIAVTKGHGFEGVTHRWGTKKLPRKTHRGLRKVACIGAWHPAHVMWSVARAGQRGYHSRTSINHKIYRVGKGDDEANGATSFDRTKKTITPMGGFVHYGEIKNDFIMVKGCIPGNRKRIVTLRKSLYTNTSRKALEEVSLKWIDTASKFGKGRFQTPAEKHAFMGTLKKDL
UniProt P49626: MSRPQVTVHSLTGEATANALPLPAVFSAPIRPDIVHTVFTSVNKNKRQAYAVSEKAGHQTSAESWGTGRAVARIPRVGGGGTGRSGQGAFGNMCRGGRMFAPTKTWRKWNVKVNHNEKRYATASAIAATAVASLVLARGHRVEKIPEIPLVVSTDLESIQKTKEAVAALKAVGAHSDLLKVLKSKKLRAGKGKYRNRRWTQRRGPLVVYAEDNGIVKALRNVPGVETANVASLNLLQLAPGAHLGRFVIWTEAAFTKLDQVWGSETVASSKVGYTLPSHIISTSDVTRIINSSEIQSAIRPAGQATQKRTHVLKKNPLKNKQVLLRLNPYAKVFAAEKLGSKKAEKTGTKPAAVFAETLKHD
UniProt P54780: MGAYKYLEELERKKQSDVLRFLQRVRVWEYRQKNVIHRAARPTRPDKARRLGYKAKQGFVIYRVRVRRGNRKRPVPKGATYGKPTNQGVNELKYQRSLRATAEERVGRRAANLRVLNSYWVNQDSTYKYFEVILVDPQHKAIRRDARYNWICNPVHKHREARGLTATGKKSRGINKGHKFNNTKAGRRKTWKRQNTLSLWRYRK
UniProt P04147: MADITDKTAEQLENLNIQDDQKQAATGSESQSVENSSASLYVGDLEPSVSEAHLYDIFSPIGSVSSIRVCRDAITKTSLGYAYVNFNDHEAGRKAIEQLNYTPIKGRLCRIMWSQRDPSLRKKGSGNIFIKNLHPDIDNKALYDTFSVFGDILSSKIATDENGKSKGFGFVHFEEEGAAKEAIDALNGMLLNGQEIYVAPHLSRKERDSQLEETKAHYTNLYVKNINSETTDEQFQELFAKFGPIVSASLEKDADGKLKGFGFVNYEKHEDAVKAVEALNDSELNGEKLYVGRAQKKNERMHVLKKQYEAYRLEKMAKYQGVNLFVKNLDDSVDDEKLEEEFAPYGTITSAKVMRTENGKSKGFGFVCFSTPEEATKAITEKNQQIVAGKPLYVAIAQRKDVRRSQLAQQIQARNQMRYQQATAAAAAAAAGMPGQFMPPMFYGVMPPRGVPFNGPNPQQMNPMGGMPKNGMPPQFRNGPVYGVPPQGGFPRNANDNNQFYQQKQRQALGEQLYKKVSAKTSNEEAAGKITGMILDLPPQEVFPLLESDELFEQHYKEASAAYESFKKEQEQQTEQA
UniProt P02994: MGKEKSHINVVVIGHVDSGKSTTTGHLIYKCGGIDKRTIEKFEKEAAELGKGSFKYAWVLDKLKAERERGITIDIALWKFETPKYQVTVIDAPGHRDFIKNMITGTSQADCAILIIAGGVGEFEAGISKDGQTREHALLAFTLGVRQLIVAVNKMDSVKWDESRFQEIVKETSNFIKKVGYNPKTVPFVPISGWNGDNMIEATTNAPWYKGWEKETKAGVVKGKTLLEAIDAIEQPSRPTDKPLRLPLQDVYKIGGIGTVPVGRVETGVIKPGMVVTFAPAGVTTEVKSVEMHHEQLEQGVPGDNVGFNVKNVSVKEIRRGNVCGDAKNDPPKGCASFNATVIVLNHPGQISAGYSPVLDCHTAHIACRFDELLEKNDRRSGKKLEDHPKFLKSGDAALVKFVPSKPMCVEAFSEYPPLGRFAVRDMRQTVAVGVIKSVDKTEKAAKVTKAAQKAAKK

B1: Small ribosomal protein 8A, endogenous (protein, UniProt P0CX39 1-200)
chain: MGISRDSRHKRSATGAKRAQFRKKRKFELGRQPANTKIGAKRIHSVRTRGGNKKYRALRIETGNFSWASEGISKKTRIAGVVYHPSNNELVRTNTLTKAAIVQIDATPFRQWFEAHYGQTLGKKKNVKEEETVAKSKNAERKWAARAASAKIESSVESQFSAGRLYACISSRPGQSGRCDGYILEGEELAFYLRRLTAKK
B2: Large ribosomal protein 7A, endogenous (protein, UniProt P05737 1-244)
chain: MAAEKILTPESQLKKSKAQQKTAEQVAAERAARKAANKEKRAIILERNAAYQKEYETAERNIIQAKRDAKAAGSYYVEAQHKLVFVVRIKGINKIPPKPRKVLQLLRLTRINSGTFVKVTKATLELLKLIEPYVAYGYPSYSTIRQLVYKRGFGKINKQRVPLSDNAIIEANLGKYGILSIDDLIHEIITVGPHFKQANNFLWPFKLSNPSGGWGVPRKFKHFIQGGSFGNREEFINKLVKSMN
B3: Eukaryotic translation initiation factor 4A (Tif1p), endogenous (protein, UniProt P10081 1-395)
chain: MSEGITDIEESQIQTNYDKVVYKFDDMELDENLLRGVFGYGFEEPSAIQQRAIMPIIEGHDVLAQAQSGTGKTGTFSIAALQRIDTSVKAPQALMLAPTRELALQIQKVVMALAFHMDIKVHACIGGTSFVEDAEGLRDAQIVVGTPGRVFDNIQRRRFRTDKIKMFILDEADEMLSSGFKEQIYQIFTLLPPTTQVVLLSATMPNDVLEVTTKFMRNPVRILVKKDELTLEGIKQFYVNVEEEEYKYECLTDLYDSISVTQAVIFCNTRRKVEELTTKLRNDKFTVSAIYSDLPQQERDTIMKEFRSGSSRILISTDLLARGIDVQQVSLVINYDLPANKENYIHRIGRGGRFGRKGVAINFVTNEDVGAMRELEKFYSTQIEELPSDIATLLN
B4: Small ribosomal protein 4A, endogenous (protein, UniProt P0CX35 1-261)
chain: MARGPKKHLKRLAAPHHWLLDKLSGCYAPRPSAGPHKLRESLPLIVFLRNRLKYALNGREVKAILMQRHVKVDGKVRTDTTYPAGFMDVITLDATNENFRLVYDVKGRFAVHRITDEEASYKLGKVKKVQLGKKGVPYVVTHDGRTIRYPDPNIKVNDTVKIDLASGKITDFIKFDAGKLVYVTGGRNLGRIGTIVHKERHDGGFDLVHIKDSLDNTFVTRLNNVFVIGEQGKPYISLPKGKGIKLSIAEERDRRRAQQGL

molecular target: T1, HA-eIF2A (N-terminally HA-tagged eukaryotic initiation factor 2A expressed from YCplac111-YP) (S. cerevisiae); assay: affinity purification with mass spectrometry; HA-eIF2A precipitated on α-HA affinity matrix from lysate of ΔeIF2A yeast with YCplac111-YP, NETK buffer, overnight 4°C, eluted with HA peptide; gel bands absent from the vector-alone control analysed by LC-tandem MS

binding, binds:
Eukaryotic translation elongation factor 2 (Eft1p), endogenous (from UniProt P32324 1-842)
Large ribosomal protein 1B, endogenous (from UniProt P0CX44 1-217)
Large ribosomal protein 2B, endogenous (from UniProt P0CX46 1-254)
Large ribosomal protein 3, endogenous (from UniProt P14126 1-387)
Large ribosomal protein 4B, endogenous (from UniProt P49626 1-362)
Large ribosomal protein 15B, endogenous (from UniProt P54780 1-204)
Poly(A) Binding Protein (Pab1p), endogenous (from UniProt P04147 1-577)
eEF1A (eukaryotic translation elongation factor 1A), endogenous (from UniProt P02994 1-458)
B1
B2
B3
B4
